Data on one compound can be found in patent US20220289688A1, “RNA-TARGETING LIGANDS, COMPOSITIONS THEREOF, AND METHODS OF MAKING AND USING THE SAME” (THE UNIVERSITY OF NORTH CAROLINA AT CHAPEL HILL, priority 2019, published 2022).

This data set deals with TPP riboswitch RNA. Kind of data set: Isothermal titration calorimetry (ITC), ligand titrated into RNA. The data set is classed as binding. Particulars: linked compound 37 versus its component fragments.

As for `c1cc(N2CCCCC2)c(NCc2ccc3nccnc3c2)cn1` [Compound 37], the “E (linking coefficient)” value is reported as 2.5.
